Measured values: patent publication US6660724B1, “Compounds and pharmaceutical compositions containing them” (Ilex Products, Inc., priority 1995, dated 2003)
Some entries share one result that the patent states for a list of compounds. For at least one compound, name, drawing or mass did not settle the structure.

Assays:
Lp(a) [1] = assay: Assay 2: lowering the production of Lp(a) in primary cultures of Cynomolgus hepatocytes, 24 h incubation; assay type: cell-based, Cynomolgus monkey; details: 20 μM test compound, percentage of value measured for control plates
plasma Lp(a) = assay: In vivo plasma Lp(a) lowering in male cynomolgus monkeys; details: oral gavage 25 mg/kg/day for 4 weeks; value at Day 28, % change from predose at Day −7; mean of 3-4 animals
Lp(a) [2] = assay: Assay 1: lowering the production of Lp(a) in primary cultures of Cynomolgus hepatocytes, 4 h incubation; assay type: cell-based, Cynomolgus monkey; details: 20 μM test compound, percentage of value measured for control plates

CCOP(=O)(OCC)C(Nc1cccnc1)c1cc(OC)c(O)c(OC)c1 (single isomer, unassigned) [Compound 65]
change of the concentration of Lp(a) in the culture medium (Lp(a) [1]): −7 to −37%

COP(=O)(OC)C(Nc1cccnc1)c1cc(C(C)(C)C)c(O)c(C(C)(C)C)c1 (stereo not drawn) [Compound 1, Dimethyl α-(3,5-di-tert-Butyl-4-hydroxyphenyl)-N-(3-pyridyl)-amino-methylphosphonate]
change of the concentration of Lp(a) in the culture medium (Lp(a) [1]): −7 to −37%
lowering of plasma Lp(a) (plasma Lp(a)): −13% to −51%

CCOP(=O)(OCC)C(Nc1ccccn1)c1cc(C(C)(C)C)c(O)c(C(C)(C)C)c1 (stereo not drawn) [Compound 13, Diethyl α-(3,5-di-tert-Butyl-4-hydroxyphenyl)-N-(2-pyridyl)-amino-methylphosphonate]
change of the concentration of Lp(a) in the culture medium (Lp(a) [1]): −7 to −37%

CCOP(=O)(CNC(Cc1ccccn1)c1cc(C(C)(C)C)c(O)c(C(C)(C)C)c1)OCC (stereo not drawn) [Compound 17, Diethyl α-(3,5-di-tert-butyl-4-hydroxyphenyl)-N-(2-pyridylethyl)aminomethylphosphonate]
change of the concentration of Lp(a) in the culture medium (Lp(a) [1]): −7 to −37%
lowering of plasma Lp(a) (plasma Lp(a)): −13% to −51%

CCOP(=O)(OCC)C(Nc1cccnc1)c1cc(OC)c(O)c(OC)c1 (stereo not drawn) [Compound 20, Diethyl α-(3,5-Dimethoxy-4-hydroxyphenyl)-N-(3-pyridyl)amino-methylphosphonate]
change of the concentration of Lp(a) in the culture medium (Lp(a) [2]): −12 to −34%
lowering of plasma Lp(a) (plasma Lp(a)): −13% to −51%

CCOP(=O)(OCC)C(Nc1ccccn1)c1cc(OC)c(O)c(OC)c1 (stereo not drawn) [Compound 29, Diethyl α-(3,5-Dimethoxy-4-hydroxyphenyl)-N-(2-pyridyl)-amino-methylphosphonate]
change of the concentration of Lp(a) in the culture medium (Lp(a) [1]): −7 to −37%

COc1cc(C(Nc2cccnc2)P(=O)(OC(C)C)OC(C)C)cc(C)c1O (stereo not drawn) [Compound 44, Diisopropyl α-(4-Hydroxy-3-methoxy-5-methylphenyl)-N-(3-pyridyl)-amino-methylphosphonate]
change of the concentration of Lp(a) in the culture medium (Lp(a) [1]): −7 to −37%
lowering of plasma Lp(a) (plasma Lp(a)): −13% to −51%

CCCCc1cc(C(Nc2cccnc2)P(=O)(OC(C)C)OC(C)C)cc(OC)c1O (stereo not drawn) [Compound 46, Diisopropyl α-(3-n-Butyl-4-hydroxy-5-methoxyphenyl)-N-(3-pyridyl)-amino-methylphosphonate]
change of the concentration of Lp(a) in the culture medium (Lp(a) [1]): −7 to −37%

Diethyl α-(3,5-di-tert-Butyl-4-hydroxyphenyl)-N-acetyl-N-(4-picolyl)-aminomethylphosphonate [Compound 11]
change of the concentration of Lp(a) in the culture medium (Lp(a) [2]): −12 to −34%
change of the concentration of Lp(a) in the culture medium (Lp(a) [1]): −7 to −37%

Diethyl α-(3,5-di-tert-butyl-4-hydroxyphenyl)-N-(3-picolyl)aminomethylphosphonate [Compound 15]
change of the concentration of Lp(a) in the culture medium (Lp(a) [2]): −12 to −34%
change of the concentration of Lp(a) in the culture medium (Lp(a) [1]): −7 to −37%
lowering of plasma Lp(a) (plasma Lp(a)): −13% to −51%

Diethyl α-(3,5-di-tert-butyl-4-hydroxyphenyl)-N-(4-picolyl)aminomethylphosphonate [Compound 7]
change of the concentration of Lp(a) in the culture medium (Lp(a) [2]): −12 to −34%
change of the concentration of Lp(a) in the culture medium (Lp(a) [1]): −7 to −37%
lowering of plasma Lp(a) (plasma Lp(a)): −13% to −51%
